Measurements from the supplement of paper PMC12819154, “High-throughput peptide-centric local stability assay extends protein–ligand identification to membrane proteins, tissues and bacteria” (Nature Structural & Molecular Biology, 2025).
The other results are listed elsewhere or left out. Small differences around the control level are noise.

Amino acid sequences for entries named in this document (tags omitted). A change or cut given only in a name is not applied to a line headed by its entry.
UniProt Q8BQB4: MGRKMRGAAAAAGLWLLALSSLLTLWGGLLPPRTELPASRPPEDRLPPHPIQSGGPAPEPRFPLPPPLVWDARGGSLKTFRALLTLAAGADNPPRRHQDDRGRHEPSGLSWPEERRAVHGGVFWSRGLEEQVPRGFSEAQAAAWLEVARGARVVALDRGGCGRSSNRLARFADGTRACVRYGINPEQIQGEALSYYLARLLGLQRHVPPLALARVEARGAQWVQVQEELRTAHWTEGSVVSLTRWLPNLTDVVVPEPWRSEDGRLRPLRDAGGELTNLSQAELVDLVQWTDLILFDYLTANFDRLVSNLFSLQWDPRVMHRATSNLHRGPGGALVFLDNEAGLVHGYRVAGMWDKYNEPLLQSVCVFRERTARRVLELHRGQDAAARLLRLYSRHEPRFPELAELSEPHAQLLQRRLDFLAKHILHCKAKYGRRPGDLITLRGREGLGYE
UniProt Q8BMK1: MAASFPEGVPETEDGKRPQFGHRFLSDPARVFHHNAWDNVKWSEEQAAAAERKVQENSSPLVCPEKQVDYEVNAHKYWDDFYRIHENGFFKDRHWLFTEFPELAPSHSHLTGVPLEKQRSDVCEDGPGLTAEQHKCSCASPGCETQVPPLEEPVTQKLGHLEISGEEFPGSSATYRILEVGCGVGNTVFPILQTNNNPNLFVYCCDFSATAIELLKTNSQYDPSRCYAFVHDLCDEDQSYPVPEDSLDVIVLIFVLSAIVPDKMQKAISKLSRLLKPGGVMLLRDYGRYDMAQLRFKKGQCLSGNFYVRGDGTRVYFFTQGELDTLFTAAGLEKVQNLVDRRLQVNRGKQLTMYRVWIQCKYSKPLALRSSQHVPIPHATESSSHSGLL
UniProt Q8BIA4: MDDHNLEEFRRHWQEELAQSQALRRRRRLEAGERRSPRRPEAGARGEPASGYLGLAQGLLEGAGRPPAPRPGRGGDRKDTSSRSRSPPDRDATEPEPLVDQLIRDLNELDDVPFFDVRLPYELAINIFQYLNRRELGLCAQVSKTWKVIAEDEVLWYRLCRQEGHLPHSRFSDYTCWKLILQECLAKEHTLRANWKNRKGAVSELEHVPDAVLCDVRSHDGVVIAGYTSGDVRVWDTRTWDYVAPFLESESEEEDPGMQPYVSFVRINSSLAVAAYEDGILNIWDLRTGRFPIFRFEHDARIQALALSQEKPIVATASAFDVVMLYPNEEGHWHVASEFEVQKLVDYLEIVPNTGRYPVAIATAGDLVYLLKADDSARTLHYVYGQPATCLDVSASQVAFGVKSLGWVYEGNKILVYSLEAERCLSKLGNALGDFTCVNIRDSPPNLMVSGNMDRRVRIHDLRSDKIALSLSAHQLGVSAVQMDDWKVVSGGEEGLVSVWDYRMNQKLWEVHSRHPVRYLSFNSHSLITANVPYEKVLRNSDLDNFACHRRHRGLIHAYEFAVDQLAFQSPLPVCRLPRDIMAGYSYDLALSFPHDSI
UniProt Q8BUH7: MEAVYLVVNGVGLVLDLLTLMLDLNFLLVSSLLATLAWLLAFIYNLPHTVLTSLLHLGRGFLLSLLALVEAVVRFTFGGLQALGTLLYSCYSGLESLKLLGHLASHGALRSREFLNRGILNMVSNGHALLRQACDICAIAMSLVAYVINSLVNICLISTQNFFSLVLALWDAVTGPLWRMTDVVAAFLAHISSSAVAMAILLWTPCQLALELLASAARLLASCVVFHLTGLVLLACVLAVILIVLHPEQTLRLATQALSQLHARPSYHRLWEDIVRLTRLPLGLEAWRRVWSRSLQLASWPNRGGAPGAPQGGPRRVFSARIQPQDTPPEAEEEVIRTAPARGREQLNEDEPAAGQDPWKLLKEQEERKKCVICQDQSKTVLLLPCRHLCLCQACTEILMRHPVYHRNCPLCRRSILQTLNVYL
UniProt Q8BLY2: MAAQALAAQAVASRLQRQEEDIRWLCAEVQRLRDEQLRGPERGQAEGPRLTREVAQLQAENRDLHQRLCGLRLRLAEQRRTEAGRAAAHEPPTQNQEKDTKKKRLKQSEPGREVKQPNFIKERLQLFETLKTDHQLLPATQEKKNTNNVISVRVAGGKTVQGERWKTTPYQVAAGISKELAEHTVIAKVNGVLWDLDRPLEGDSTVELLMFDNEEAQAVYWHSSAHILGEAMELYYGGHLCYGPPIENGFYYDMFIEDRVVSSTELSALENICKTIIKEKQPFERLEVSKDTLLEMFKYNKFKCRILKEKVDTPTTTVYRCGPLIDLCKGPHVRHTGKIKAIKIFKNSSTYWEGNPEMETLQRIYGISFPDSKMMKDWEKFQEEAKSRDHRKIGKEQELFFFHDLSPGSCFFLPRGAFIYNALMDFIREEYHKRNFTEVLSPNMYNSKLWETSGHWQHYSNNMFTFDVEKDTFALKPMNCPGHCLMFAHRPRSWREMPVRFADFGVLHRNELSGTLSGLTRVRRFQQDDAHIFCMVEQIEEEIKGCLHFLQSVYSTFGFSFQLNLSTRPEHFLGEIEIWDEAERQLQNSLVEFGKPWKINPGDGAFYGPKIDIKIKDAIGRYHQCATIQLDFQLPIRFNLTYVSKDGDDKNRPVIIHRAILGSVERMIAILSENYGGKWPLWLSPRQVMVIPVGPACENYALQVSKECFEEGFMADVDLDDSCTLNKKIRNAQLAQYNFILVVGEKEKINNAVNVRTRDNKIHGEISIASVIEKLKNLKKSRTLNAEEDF
UniProt Q8BJ56: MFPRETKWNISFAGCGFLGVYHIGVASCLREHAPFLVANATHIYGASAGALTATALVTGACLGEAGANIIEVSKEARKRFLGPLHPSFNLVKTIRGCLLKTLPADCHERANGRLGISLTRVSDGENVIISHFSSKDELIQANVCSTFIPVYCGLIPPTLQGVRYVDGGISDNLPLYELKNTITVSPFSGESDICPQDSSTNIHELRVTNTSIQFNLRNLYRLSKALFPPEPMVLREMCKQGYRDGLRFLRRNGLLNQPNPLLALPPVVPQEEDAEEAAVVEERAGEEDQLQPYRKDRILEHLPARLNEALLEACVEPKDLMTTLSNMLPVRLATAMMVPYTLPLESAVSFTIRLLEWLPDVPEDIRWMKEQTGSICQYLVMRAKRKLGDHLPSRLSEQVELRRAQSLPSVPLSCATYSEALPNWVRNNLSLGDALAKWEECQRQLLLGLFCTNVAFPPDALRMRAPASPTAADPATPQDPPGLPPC
UniProt Q8BQM9: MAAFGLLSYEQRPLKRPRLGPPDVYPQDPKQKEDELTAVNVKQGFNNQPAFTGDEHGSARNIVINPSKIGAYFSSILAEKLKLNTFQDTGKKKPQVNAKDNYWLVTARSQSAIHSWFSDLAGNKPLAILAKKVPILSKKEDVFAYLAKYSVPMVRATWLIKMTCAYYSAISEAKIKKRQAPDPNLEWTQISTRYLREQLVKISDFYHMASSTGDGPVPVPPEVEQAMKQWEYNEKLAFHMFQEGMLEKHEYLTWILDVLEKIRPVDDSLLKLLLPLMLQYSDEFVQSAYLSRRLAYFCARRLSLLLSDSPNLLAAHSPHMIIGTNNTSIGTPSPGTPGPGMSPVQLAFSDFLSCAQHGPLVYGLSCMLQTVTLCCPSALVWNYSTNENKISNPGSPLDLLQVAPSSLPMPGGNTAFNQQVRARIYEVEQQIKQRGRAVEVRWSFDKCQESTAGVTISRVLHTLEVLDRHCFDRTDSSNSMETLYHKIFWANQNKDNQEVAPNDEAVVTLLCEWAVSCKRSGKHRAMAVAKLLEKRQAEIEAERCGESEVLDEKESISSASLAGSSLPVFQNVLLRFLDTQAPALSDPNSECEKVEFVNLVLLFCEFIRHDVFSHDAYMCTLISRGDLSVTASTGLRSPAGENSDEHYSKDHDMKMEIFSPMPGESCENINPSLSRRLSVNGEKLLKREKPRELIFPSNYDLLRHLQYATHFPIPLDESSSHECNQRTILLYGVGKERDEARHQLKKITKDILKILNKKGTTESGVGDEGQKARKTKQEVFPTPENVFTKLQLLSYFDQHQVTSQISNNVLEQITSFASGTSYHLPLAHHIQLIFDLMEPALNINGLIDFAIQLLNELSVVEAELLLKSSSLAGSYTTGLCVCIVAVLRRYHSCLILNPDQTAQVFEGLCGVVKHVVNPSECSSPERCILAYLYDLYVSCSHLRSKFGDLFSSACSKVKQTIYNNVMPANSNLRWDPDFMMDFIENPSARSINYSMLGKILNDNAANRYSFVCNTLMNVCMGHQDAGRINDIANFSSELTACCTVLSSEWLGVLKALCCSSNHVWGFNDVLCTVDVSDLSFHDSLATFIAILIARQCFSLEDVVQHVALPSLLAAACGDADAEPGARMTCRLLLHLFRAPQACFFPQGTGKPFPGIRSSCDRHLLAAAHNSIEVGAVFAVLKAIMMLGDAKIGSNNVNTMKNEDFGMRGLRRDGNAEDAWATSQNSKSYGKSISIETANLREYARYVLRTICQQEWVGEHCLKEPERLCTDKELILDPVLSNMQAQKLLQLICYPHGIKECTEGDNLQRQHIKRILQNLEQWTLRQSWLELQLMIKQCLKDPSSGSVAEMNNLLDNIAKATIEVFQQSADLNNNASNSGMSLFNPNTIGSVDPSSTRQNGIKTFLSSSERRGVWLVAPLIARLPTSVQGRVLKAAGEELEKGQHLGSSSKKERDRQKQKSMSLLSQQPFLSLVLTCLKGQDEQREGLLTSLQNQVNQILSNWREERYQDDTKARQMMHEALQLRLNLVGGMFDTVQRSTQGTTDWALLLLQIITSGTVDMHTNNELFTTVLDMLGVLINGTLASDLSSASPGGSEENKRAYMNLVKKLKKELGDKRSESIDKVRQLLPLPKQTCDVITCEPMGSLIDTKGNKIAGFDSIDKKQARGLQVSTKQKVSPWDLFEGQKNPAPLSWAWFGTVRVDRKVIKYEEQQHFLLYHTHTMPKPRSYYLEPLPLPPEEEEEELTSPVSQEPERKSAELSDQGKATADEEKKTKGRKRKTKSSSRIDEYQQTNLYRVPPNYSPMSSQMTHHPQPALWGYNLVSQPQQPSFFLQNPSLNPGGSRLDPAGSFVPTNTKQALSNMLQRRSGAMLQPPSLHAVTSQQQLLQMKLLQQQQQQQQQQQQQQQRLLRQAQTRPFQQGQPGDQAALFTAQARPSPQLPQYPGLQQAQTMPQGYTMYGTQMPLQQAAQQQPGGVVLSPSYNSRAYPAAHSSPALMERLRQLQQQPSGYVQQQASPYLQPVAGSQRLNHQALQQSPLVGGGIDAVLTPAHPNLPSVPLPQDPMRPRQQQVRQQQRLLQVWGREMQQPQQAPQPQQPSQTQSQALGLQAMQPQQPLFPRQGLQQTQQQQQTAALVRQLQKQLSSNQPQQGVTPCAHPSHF
UniProt Q8BRJ4: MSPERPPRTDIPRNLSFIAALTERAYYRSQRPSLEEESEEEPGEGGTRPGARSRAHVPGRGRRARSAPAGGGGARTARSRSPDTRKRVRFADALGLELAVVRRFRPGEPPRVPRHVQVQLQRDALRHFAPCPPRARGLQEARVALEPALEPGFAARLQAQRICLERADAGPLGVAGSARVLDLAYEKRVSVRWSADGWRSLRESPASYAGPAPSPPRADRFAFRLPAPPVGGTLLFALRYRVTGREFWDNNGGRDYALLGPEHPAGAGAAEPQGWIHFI
UniProt Q8BTR5: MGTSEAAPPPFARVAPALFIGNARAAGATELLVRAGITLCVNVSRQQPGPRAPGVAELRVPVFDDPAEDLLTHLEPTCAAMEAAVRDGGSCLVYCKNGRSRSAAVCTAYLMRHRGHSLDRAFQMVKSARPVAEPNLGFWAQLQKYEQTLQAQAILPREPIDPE
UniProt Q8BKY8: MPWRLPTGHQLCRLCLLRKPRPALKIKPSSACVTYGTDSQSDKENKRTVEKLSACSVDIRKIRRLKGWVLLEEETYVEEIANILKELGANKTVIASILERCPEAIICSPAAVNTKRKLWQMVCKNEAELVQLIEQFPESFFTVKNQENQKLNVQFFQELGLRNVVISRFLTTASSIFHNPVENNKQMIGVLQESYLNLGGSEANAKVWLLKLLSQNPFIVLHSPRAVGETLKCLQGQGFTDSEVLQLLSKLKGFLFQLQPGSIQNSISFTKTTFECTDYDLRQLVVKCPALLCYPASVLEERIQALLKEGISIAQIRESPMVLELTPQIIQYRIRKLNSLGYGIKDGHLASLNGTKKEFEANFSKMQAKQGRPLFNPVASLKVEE
UniProt Q8BQS5: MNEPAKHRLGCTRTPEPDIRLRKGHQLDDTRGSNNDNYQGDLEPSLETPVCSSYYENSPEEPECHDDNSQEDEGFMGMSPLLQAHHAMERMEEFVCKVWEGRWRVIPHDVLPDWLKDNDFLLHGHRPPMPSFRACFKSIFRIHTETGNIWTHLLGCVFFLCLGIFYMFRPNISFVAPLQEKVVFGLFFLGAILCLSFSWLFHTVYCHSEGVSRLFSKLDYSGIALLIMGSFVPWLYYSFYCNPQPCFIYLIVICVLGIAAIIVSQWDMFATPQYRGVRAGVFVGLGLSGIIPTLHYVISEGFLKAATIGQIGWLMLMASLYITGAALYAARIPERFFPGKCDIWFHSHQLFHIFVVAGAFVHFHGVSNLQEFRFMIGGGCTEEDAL

What follows are targets tested with CN[C@@H]1C[C@H]2O[C@@](C)([C@@H]1OC)n1c3ccccc3c3c4c(c5c6ccccc6n2c5c31)C(=O)NC4 [staurosporine] (assay: log2 fold change of tryptic peptide abundance, ligand vs vehicle (limited proteolysis) (log2 ratio); higher = more trypsin-susceptible (destabilized)). Conditions: ligand concentration: 20 uM; sample: mouse liver crude lysate; replicate design: treated separately.

Target	log2 fold change
UniProt Q8BQB4 (peptide sequence: RLDFLAK, peptide start residue: 416)	0.109
UniProt Q8BQZ5 (peptide sequence: GHLAFLSGQ, peptide start residue: 203)	0.442
UniProt Q8BV79 (peptide sequence: NEDGSLKR, peptide start residue: 1295)	-0.258
UniProt Q8BMK1 (peptide sequence: AASFPEGVPETEDGKRPQFGHR, peptide start residue: 2)	-0.133
UniProt Q8BJW5 (peptide sequence: QLLSIIKK, peptide start residue: 399)	-0.146
UniProt Q8BIA4 (peptide sequence: HWQEELAQSQALRR, peptide start residue: 12)	-0.269
UniProt Q8BUH7 (peptide sequence: GGAPGAPQGGPR, peptide start residue: 304)	0.196
UniProt Q8BP48 (peptide sequence: LFHTAPNVPHYAK, peptide start residue: 299)	0.195
UniProt Q8BI72 (peptide sequence: SSSSGSHQDSATSEGDR, peptide start residue: 187)	-0.264
UniProt Q8BQU3 (peptide sequence: TVGPGEAQR, peptide start residue: 44)	-0.139
UniProt Q8BP01 (peptide sequence: SLQAAVDQR, peptide start residue: 82)	-0.301
UniProt Q8BLY2 (peptide sequence: WLCAEVQR, peptide start residue: 24)	-0.372
UniProt Q8BNV1 (peptide sequence: ASLVCHFMEGPGK, peptide start residue: 337)	-0.151
UniProt Q8BJ56 (peptide sequence: LGDHLPSR, peptide start residue: 387)	0.257
UniProt Q8BL99 (peptide sequence: SSFARSFDR, peptide start residue: 945)	-0.334
UniProt Q8BMB3 (peptide sequence: LLFQNLWKPR, peptide start residue: 232)	0.0106

Target	log2 fold change
UniProt Q8BIV3 (peptide sequence: AKLEGHFK, peptide start residue: 807)	-0.359
UniProt Q8BQM9 (peptide sequence: KKPQVNAK, peptide start residue: 92)	0.086
UniProt Q8BJU9 (peptide sequence: LAESEIALCQK, peptide start residue: 88)	0.129
UniProt Q8BLY7 (peptide sequence: TVGILQEAPVSLK, peptide start residue: 300)	-0.407
UniProt Q8BQ30 (peptide sequence: KDYLEGCGREEEK, peptide start residue: 270)	0.316
UniProt Q8BRJ4 (peptide sequence: HVQVQLQR, peptide start residue: 115)	-0.0111
UniProt Q8BU14 (peptide sequence: MKYDKDVK, peptide start residue: 100)	-0.2
UniProt Q8BMD7 (peptide sequence: EEKQELK, peptide start residue: 842)	0.234
UniProt Q8BTR5 (peptide sequence: VAPALFIGNAR, peptide start residue: 14)	-0.342
UniProt Q8BML9 (peptide sequence: LASGQPVGLR, peptide start residue: 630)	-0.862
UniProt Q8BML1 (peptide sequence: CSVCSATLR, peptide start residue: 1020)	0.502
UniProt Q8BKY8 (peptide sequence: QGRPLFNPVASLK, peptide start residue: 370)	-0.292
UniProt Q8BV13 (peptide sequence: ECPPHTEQR, peptide start residue: 239)	-0.337
UniProt Q8BQS5 (peptide sequence: LGCTRTPEPDIR, peptide start residue: 9)	-0.194
UniProt Q8BIL5 (peptide sequence: SLQETNMMYMHNTVSLEEELKK, peptide start residue: 342)	0.538

Looked up above.
UniProt Q8BTR5 (peptide sequence: VAPALFIGNAR, peptide start residue: 14) – log2 fold change: -0.342
UniProt Q8BRJ4 (peptide sequence: HVQVQLQR, peptide start residue: 115) – log2 fold change: -0.0111
